These are yes or no findings as the source states them, for the method shown. In cells and extracts the contact can be indirect. Some binding calls cover weakened binding; strength is not graded here.

Chains of the proteins cited; added tags and fusions are not shown.
UniProt Q62696: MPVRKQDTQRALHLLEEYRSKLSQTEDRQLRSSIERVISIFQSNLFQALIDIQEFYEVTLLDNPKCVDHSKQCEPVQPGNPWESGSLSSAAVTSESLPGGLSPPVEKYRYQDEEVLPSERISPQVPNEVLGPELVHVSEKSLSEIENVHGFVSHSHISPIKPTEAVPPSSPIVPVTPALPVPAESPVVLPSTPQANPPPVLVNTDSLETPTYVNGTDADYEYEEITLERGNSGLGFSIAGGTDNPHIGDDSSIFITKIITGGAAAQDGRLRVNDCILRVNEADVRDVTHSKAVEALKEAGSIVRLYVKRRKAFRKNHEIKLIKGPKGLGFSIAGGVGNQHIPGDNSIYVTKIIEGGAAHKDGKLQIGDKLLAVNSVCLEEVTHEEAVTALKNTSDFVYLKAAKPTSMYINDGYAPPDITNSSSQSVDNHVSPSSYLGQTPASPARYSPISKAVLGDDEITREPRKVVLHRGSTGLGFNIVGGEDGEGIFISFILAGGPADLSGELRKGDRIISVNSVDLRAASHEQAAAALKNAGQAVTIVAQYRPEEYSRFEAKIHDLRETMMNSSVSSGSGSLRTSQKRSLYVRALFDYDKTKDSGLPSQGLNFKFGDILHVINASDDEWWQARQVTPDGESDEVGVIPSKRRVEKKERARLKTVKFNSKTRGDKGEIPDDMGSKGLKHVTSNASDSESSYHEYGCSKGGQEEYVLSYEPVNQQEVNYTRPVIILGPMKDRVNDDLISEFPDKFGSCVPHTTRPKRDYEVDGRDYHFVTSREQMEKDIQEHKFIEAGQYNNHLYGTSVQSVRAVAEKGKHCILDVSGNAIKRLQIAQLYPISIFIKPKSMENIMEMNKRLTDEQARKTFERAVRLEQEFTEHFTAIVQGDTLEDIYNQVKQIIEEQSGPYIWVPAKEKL
UniProt Q3SXY8: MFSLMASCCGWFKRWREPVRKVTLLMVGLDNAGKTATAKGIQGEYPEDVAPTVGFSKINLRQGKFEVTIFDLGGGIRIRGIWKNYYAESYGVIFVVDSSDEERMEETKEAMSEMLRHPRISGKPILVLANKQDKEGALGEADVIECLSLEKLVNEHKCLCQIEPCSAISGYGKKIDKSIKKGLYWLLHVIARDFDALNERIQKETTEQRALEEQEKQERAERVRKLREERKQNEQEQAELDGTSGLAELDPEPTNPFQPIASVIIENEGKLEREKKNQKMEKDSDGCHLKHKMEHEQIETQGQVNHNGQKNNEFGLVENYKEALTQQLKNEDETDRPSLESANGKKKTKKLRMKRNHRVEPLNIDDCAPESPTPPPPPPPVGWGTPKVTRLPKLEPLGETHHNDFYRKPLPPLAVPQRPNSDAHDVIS
UniProt P60953: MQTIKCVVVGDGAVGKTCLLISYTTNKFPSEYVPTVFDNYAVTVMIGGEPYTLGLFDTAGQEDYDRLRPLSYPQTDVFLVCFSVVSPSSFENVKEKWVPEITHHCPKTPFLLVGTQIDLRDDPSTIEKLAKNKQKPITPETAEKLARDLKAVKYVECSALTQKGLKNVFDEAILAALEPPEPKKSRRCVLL
UniProt Q15154: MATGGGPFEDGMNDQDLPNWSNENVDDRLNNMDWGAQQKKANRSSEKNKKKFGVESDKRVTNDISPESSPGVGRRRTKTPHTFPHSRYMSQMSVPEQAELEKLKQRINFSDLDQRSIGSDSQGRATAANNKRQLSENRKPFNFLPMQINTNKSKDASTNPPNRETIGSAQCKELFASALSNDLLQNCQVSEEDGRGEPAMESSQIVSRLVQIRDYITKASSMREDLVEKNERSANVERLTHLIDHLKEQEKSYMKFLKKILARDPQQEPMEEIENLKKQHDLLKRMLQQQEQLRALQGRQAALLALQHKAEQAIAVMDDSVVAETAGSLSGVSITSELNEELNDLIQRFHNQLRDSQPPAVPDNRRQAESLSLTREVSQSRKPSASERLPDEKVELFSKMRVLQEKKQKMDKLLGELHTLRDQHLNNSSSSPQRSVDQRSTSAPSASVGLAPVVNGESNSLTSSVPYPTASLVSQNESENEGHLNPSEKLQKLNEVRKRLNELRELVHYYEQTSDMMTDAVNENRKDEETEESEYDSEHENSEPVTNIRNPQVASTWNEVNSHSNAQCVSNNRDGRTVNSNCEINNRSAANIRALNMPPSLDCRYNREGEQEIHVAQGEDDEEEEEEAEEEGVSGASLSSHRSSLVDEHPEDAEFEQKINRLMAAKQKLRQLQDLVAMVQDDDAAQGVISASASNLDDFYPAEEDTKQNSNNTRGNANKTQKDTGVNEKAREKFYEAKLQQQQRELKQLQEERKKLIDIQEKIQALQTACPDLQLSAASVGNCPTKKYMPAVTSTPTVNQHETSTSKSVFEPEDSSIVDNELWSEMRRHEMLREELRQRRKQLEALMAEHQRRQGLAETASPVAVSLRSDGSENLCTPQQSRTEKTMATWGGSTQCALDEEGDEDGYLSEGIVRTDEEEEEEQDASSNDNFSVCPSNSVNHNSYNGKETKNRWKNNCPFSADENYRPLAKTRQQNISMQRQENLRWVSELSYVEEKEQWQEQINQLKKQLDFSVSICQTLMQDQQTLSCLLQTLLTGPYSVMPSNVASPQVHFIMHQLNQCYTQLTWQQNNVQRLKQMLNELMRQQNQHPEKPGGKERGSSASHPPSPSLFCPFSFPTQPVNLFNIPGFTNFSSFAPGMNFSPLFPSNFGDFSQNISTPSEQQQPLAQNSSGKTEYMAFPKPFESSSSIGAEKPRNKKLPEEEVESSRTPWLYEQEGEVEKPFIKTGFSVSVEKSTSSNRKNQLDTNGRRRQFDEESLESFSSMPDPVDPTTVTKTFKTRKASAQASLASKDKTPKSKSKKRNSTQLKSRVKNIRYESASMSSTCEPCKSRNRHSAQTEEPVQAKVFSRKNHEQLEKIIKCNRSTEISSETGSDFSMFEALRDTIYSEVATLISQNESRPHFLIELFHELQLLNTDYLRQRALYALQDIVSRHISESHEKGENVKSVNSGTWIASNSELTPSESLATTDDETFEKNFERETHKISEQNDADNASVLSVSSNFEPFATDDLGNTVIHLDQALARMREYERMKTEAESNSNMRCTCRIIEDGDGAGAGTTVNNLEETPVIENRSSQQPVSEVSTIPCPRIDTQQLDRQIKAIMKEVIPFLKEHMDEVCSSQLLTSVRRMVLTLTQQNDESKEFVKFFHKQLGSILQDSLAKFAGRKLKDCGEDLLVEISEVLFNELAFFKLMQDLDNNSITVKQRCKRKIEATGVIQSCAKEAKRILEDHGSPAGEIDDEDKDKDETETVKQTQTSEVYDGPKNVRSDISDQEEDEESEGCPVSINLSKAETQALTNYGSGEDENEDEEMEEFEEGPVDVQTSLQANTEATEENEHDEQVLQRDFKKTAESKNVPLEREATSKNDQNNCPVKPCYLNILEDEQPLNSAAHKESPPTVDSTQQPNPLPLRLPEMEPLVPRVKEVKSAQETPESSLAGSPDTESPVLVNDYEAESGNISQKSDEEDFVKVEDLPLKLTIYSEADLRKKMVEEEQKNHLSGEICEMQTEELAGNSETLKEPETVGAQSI

The values that follow come from paper doi:10.1101/2022.10.05.510992.

Assay [1] deals with T1, Sodium-bicarbonate co-transporter NBCn1 (SLC4A7), native in human cells (human (endogenous in MCF-7 and HEK293T)) (UniProt Q9Y6M7).
T1 sequence: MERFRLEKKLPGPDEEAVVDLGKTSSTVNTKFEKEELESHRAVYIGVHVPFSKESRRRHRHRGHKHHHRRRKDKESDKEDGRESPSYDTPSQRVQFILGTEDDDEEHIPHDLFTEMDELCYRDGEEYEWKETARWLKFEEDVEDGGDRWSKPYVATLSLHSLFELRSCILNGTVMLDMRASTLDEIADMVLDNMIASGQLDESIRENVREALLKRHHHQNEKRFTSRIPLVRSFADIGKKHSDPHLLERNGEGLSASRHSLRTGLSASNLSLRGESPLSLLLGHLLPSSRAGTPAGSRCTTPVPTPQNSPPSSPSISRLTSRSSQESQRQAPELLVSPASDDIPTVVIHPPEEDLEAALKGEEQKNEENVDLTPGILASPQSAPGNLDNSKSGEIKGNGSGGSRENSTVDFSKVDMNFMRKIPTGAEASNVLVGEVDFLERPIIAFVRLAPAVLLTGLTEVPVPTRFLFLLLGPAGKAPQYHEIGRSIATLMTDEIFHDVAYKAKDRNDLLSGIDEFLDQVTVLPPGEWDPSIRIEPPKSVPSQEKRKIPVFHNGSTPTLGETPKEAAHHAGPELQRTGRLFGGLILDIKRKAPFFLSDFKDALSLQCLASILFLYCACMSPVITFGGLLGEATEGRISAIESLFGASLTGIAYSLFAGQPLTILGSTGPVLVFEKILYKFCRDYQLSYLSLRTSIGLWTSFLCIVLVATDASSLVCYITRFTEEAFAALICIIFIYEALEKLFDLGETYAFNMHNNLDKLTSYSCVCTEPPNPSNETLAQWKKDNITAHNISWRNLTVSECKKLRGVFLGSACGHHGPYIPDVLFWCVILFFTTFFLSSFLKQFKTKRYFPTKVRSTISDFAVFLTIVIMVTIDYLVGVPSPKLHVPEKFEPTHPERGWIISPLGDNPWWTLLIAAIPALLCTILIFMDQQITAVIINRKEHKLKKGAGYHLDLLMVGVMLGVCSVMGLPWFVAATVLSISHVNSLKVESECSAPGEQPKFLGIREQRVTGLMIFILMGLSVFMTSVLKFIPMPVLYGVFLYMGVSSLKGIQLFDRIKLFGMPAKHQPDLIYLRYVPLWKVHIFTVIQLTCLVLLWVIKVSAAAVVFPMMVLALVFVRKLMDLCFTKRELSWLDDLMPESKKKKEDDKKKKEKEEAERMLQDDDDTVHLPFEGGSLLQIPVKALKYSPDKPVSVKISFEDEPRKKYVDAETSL
The assay can be described thus: co-IP.

Assay [2] concerns the target T1, Sodium-bicarbonate co-transporter NBCn1 (SLC4A7), native in human cells (human (endogenous in MCF-7 and HEK293T)). The assay can be described thus: proximity ligation.
The target of assay [3] is DLG1-GFP (UniProt Q62696). The assay can be described thus: co-IP.
Assay [4] deals with T2, NBCn1 (co-IP with IFT27, cells not shown) (UniProt Q9Y6M7).
T2 sequence: T1 sequence
As to the kind of experiment: co-IP.

Turning to “Arl13B, native in MCF-7 cells (from UniProt Q3SXY8 1-428)”, in assay [1], the binding entry is recorded as “binds”.
With “Cdc42, native in MCF-7 cells (from UniProt P60953 1-191)”, the binding entry in assay [2] is recorded as “binds”.
Take “Pericentriolar material-1 (PCM1), native in MCF-7 cells (from UniProt Q15154 1-2024)”: the binding entry in assay [1] is recorded as “binds”.

B1: Sodium-bicarbonate co-transporter NBCn1 (SLC4A7), native in human cells (protein, UniProt Q9Y6M7 1-1214)
chain: T1 sequence
As for B1, the binding result in assay [3] is “binds”.

B2: IFT27 (co-IP with NBCn1, cells not shown) (protein, UniProt Q9BW83 1-186)
chain: MVKLAAKCILAGDPAVGKTALAQIFRSDGAHFQKSYTLTTGMDLVVKTVPVPDTGDSVELFIFDSAGKELFSEMLDKLWESPNVLCLVYDVTNEESFNNCSKWLEKARSQAPGISLPGVLVGNKTDLAGRRAVDSAEARAWALGQGLECFETSVKEMENFEAPFHCLAKQFHQLYREKVEVFRALA
With B2, the binding entry in assay [4] is on record as “binds”.
